Measurements reported in PubChem BioAssay AID743121 (NCATS, 2013).
In all, the deposit lists about 26,000 reagents; this is a random part of them. 167 of them (0.63%) count as active. 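Calls are per gene from RSA p-values that are not deposited; an individual active-marked siRNA can sensitise only weakly.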 Further read-outs or replicates are left out here.

Screen: 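Genes whose silencing strengthens cell killing by camptothecin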 (primary screen)
Cells: MDA-MB-231 cells, a human breast cancer line
Knock-down reagent: single siRNA against human genes, 20 nM siRNA (0.8 pmol per well)
Time to read-out: 120 h (drug added 48 h after transfection, read 72 h later)
Treatment: camptothecin 20 nM (about EC30) for 72 h; vehicle 0.1% DMSO in parallel plates
Measured: 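CellTiter-Glo ATP signal, scaled to control siRNA as percent viability; sensitisation given as log2 of untreated divided by camptothecin-treated viability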
Reading the numbers: log2 vehicle/camptothecin viability: higher = stronger sensitisation to camptothecin; viability with camptothecin: higher = more viable cells
Call rule: 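Each gene scored by redundant siRNA activity (RSA) over its individual siRNA ratios; a gene is called active at p < 0.001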

log2 vehicle/camptothecin viability,viability with camptothecin (% of control),activity call,gene,PubChem SID
-0.142,47,inactive,RNF121,SID164484248
-0.383,65.7,inactive,RNF121,SID164484249
-0.768,47,inactive,RNF121,SID164484253
-0.0268,98.9,inactive,RNF121,SID164484256
0.321,68.5,inactive,INSRR,SID164371739
-0.68,83.1,inactive,INSRR,SID164371740
-0.237,54.6,inactive,INSRR,SID164371741
-0.215,87,inactive,INSRR,SID164371742
-0.155,61.8,inactive,SLC7A1,SID164388436
-0.0744,9.68,inactive,SLC7A1,SID164388437
-0.423,78.5,inactive,SLC7A1,SID164388438
-0.0684,113,inactive,SLC7A1,SID164388439
0.0416,42.2,inactive,CD209,SID164469320
-0.17,41,inactive,CD209,SID164469321
-0.22,101,inactive,CD209,SID164469322
-0.262,16.3,inactive,TRIM65,SID164585940
-0.203,66.9,inactive,TRIM65,SID164585941
-0.115,96.2,inactive,TRIM65,SID164585944
0.0676,78.5,inactive,DHRS12,SID164533140
0.364,63.5,inactive,DHRS12,SID164533143
-0.143,42,inactive,DHRS12,SID164533145
-0.206,52.2,inactive,DHRS12,SID164533146
-0.215,41,inactive,RFXANK,SID164398789
0.0529,92.2,inactive,RFXANK,SID164398790
0.41,46.3,inactive,RFXANK,SID164398791
-0.147,91.6,inactive,RFXANK,SID164398792
1.26,21.2,active,AGRP,SID164352772
-0.533,49,active,AGRP,SID164352774
1.22,26.2,active,AGRP,SID164352775
0.283,31.2,inactive,PCSK6,SID164379291
-0.0112,86.1,inactive,PCSK6,SID164379296
-0.0212,49.2,inactive,PCSK6,SID164379298
0.0762,97.8,inactive,PCSK6,SID164379299

Next part (2 carried over from the part before).
log2 vehicle/camptothecin viability,viability with camptothecin (% of control),activity call,gene,PubChem SID
-0.0212,49.2,inactive,PCSK6,SID164379298
0.0762,97.8,inactive,PCSK6,SID164379299
-0.458,49.3,inactive,DUSP19,SID164572755
-0.322,77,inactive,DUSP19,SID164572756
-0.245,51.4,inactive,DUSP19,SID164572757
-0.207,68,inactive,DUSP19,SID164572758
-0.286,8.92,inactive,XAB2,SID164491956
-0.262,110,inactive,XAB2,SID164491957
-0.123,5.29,inactive,XAB2,SID164491958
-0.545,15.7,inactive,XAB2,SID164491959
-0.0309,88,inactive,NPSR1,SID164676287
-0.0951,100,inactive,NPSR1,SID164676288
0.715,61.1,inactive,NPSR1,SID164676291
-0.233,41,inactive,NPSR1,SID164676296
0.072,35.9,inactive,SSPN,SID164396193
0.124,71.9,inactive,SSPN,SID164396194
0.14,82.3,inactive,SSPN,SID164396197
-0.108,89.5,inactive,SSPN,SID164396198
0.995,38.4,inactive,KPNA6,SID164449242
-0.137,85.3,inactive,KPNA6,SID164449245
-0.686,79.9,inactive,KPNA6,SID164449246
-0.128,60.6,inactive,CPA4,SID164472553
-0.192,104,inactive,CPA4,SID164472555
-0.349,73.2,inactive,CPA4,SID164472556
0.185,86.7,inactive,CPA4,SID164472557
-0.206,89.9,inactive,KCNH5,SID164462606
-0.266,88.9,inactive,KCNH5,SID164462610
-0.119,96.6,inactive,KCNH5,SID164462612
0.458,65.5,inactive,KCNH5,SID164462613
-0.27,95.1,inactive,RNF130,SID164487060
0.294,69.3,inactive,RNF130,SID164487061
-0.328,64.2,inactive,RNF130,SID164487065
-0.371,87.2,inactive,RNF130,SID164487066
0.0951,55.6,inactive,NR1H2,SID164393528
0.276,65.9,inactive,NR1H2,SID164393529
-0.0611,70,inactive,NR1H2,SID164393531
0.159,67.4,inactive,CD68,SID164357396
-0.0722,65.5,inactive,CD68,SID164357397
-0.0255,86.7,inactive,CD68,SID164357398
1.72,13.2,inactive,CD68,SID164357399
